Laboratory results reported in PubChem BioAssay AID330 (DTP/NCI, 2004).
The list does not hold the whole screen: it is rich in T/C values a quarter to a half above the control, in often repeated tests (any T/C) and in doses without a T/C. Further doses and runs are listed elsewhere. T/C is the treated group as % of the vehicle group. Some doses have a count of surviving animals in place of a T/C: the source holds a T/C of zero for them, seemingly a mark for toxic or unscored doses. Some doses without a T/C left all or most animals alive at the check, yet need not have been tolerated: the source hardly ever lists a survival T/C far under the control, and the zero likely stands for such cases as well. Survivors were counted at the toxicity check, usually on the fifth day, unless a day is given; later deaths do not show. Schedules are NCI's codes, taken here to give the interval after Q, in days (D) or hours (H), and the number of doses after X. Some doses were run more than once; the results are listed from low to high. For survival time, the PubChem record calls one and a half times the control and up active, and a quarter to a half above the control has no call in these data; cut-offs in other NCI protocols can differ. Some T/C values are followed by the survivors on the day toxicity was checked, most often the fifth; without a count, all were alive then.

Tested on: P388 leukemia ip, CD2F1 mice, survival T/C
Test: NCI In Vivo Anticancer Drug Screen. Data for tumor model P388 Leukemia (intraperitoneal) in CD2F1 (CDF1) mice
Conditions: T/C endpoint: median survival time, higher T/C = longer survival
[1] = dose: 12.5 mg/kg/injection, schedule: Q01DX009 (ip), vehicle: Klucel (hydroxypropylcellulose) (HPC)
[2] = dose: 50.0 mg/kg/injection, schedule: Q01DX009 (ip), vehicle: Klucel (hydroxypropylcellulose) (HPC)
[3] = dose: 100.0 mg/kg/injection, schedule: Q01DX009 (ip), vehicle: Klucel (hydroxypropylcellulose) (HPC)
[4] = dose: 200.0 mg/kg/injection, schedule: Q01DX009 (ip), vehicle: Klucel (hydroxypropylcellulose) (HPC)
[5] = dose: 200.0 mg/kg/injection, schedule: Q01DX005 (ip), vehicle: Klucel (hydroxypropylcellulose) (HPC)
[6] = dose: 100.0 mg/kg/injection, schedule: Q01DX005 (ip), vehicle: saline with Tween-80
[7] = dose: 200.0 mg/kg/injection, schedule: Q01DX005 (ip), vehicle: saline with Tween-80
[8] = dose: 240.0 mg/kg/injection, schedule: Q01DX005 (ip), vehicle: saline with Tween-80
[9] = dose: 400.0 mg/kg/injection, schedule: Q01DX001 (ip), vehicle: saline with Tween-80
[10] = dose: 50.0 mg/kg/injection, schedule: Q01DX005 (ip), vehicle: Klucel (hydroxypropylcellulose) (HPC)
[11] = dose: 400.0 mg/kg/injection, schedule: Q04DX003 (ip), vehicle: saline with Tween-80
[12] = dose: 50.0 mg/kg/injection, schedule: Q01DX005 (ip), vehicle: saline with Tween-80
[13] = dose: 400.0 mg/kg/injection, schedule: Q01DX009 (ip), vehicle: saline with Tween-80
[14] = dose: 240.0 mg/kg/injection, schedule: Q01DX005 (ip), vehicle: Klucel (hydroxypropylcellulose) (HPC)
[15] = dose: 100.0 mg/kg/injection, schedule: Q01DX009 (ip), vehicle: saline

In the case of `O=C(/C=C/c1ccc(Cl)c(Cl)c1)c1cccc(O)c(=O)c1`, the survivor count [1] is reported as 6 of 6.
In the case of `[N-]=[N+]=Nc1ccc(Nc2c3ccccc3nc3ccccc23)cc1`, the T/C [2] is reported as 127 % of control, the survivor count [3] is reported as 5 of 6 and the survivor count [4] is reported as 0 of 6.
`CC1CCC2(C(=O)O)CCC3(C)C(=CCC4C5(C)CC(O)C(O)C(C)(CO)C5C(O)CC43C)C2C1C` (configuration not stated) was tested, and the survivor count [5] was 4 of 6.
For `COc1ccc2[nH]c3c(c2c1)C(c1ccccc1)c1ccccc1-3` (configuration not stated), the survivor count [6] was 5 of 5 and the survivor count [7] was 5 of 5.
With `CCc1cccc(CC)c1NC(=O)NN(CC)CC` the survivor count [8] was 6 of 6.
`NNc1nccnc1Cl` was tested, and the survivor count [9] was 0 of 6.
In the case of `CC(=O)OC1CCC2(C)C(=CCC3C2CCC2(C)C3CC3ON=C(C)C32)C1` (configuration not stated), the survivor count [10] is reported as 6 of 6.
`CC(C)N(C(C)C)P1(=NC(C)(C)C)N(C(C)(C)C)P(=NC(C)(C)C)(N(C(C)C)C(C)C)N1C(C)(C)C` (configuration not stated) was tested, and the survivor count [5] was 3 of 6.
For `O=C(NNC(=O)c1cccc(C(=O)NNC(=O)c2ccc(Cl)c(Cl)c2)n1)c1ccc(Cl)c(Cl)c1`, the T/C [2] was 125 % of control, the T/C [3] was 127 and 127 % of control [5 of 6 alive] and the survivor count [4] was 3 of 6.
`Cc1ccc2occ(-c3nnc(NC(=O)c4ccccc4)s3)c(=O)c2c1` was tested, and the survivor count [8] was 5 of 6.
`CNc1c([N+](=O)[O-])cc2[nH]c(C)nc2c1[N+](=O)[O-]` was tested, and the survivor count (dose: 50.0 mg/kg/injection, schedule: Q04DX003 (ip), vehicle: saline with Tween-80) was 0 of 6, the survivor count (dose: 100.0 mg/kg/injection, schedule: Q04DX003 (ip), vehicle: saline with Tween-80) was 0 of 6 and 2 of 6 and the survivor count (dose: 200.0 mg/kg/injection, schedule: Q04DX003 (ip), vehicle: saline with Tween-80) was 0 of 6. For the same molecule, the survivor count [11] was 0 of 6.
With `CN(C)CCC=C1c2ccccc2C(C)(C)c2ccccc21` the survivor count [5] was 0 of 6.
For `[CH3][Sn]([CH3])([n]1cnc(N)nc1=O)[n]1cnc(N)nc1=O`, the T/C [10] was 127 % of control [5 of 6 alive], the survivor count (dose: 100.0 mg/kg/injection, schedule: Q01DX005 (ip), vehicle: Klucel (hydroxypropylcellulose) (HPC)) was 1 of 6 and the survivor count [5] was 0 of 6.
`C1=C(C2=C[P+](c3ccccc3)(c3ccccc3)C=C(c3ccccc3)O2)OC(c2ccccc2)=C[P+]1(c1ccccc1)c1ccccc1` was tested, and the survivor count [12] was 0 of 5.
`Cc1c([O-])on[n+]1Cc1ccccc1` was tested, and the survivor count (dose: 120.0 mg/kg/injection, schedule: Q01DX005 (ip), vehicle: saline with Tween-80) was 0 of 6 and the survivor count [8] was 0 of 6.
For `COc1cccc2c1C(=O)C1=C(C2=O)c2c(O)cc(CO)cc2C(O)C1O` (configuration not stated), the survivor count (dose: 50.0 mg/kg/injection, schedule: Q01DX005 (ip), vehicle: saline + Tween-80 + alcohol) was 3 of 6.
In the case of `CCOC(=O)C(Cc1ccc(N(CCCl)CCCl)cc1)NC(=O)C(CCC(=O)O)NC(=O)C(CO)NC(=O)C(CCC(=O)O)NC(=O)C(N)CO` (configuration not stated), the T/C (dose: 80.0 mg/kg/injection, schedule: Q04DX003 (ip), vehicle: water) is reported as 131 % of control and the T/C (dose: 160.0 mg/kg/injection, schedule: Q04DX003 (ip), vehicle: water) is reported as 129 % of control.
In the case of `N#CCCCCCBr`, the survivor count [13] is reported as 0 of 6.
`O=C(O)C1C2c3ccccc3C(c3ccccc32)C1C(=O)NCC1CC1` (configuration not stated) was tested, and the survivor count [14] was 0 of 6.
`Cc1nc(N)nc(N)c1-c1ccc(N)cc1` was tested, and the survivor count [6] was 0 of 6 and the survivor count [7] was 0 of 6.
With `CCCCSc1nc2ccc(N=Cc3ccccc3O)cc2s1` the survivor count [4] was 5 of 6.
For `Cc1ccc(NC(=S)NCCc2ccccn2)cc1C`, the T/C (dose: 50.0 mg/kg/injection, schedule: Q01DX009 (ip), vehicle: saline with Tween-80) was 134 % of control.
With `c1ccc2n[nH]nc2c1` the survivor count [9] was 0 of 6, the survivor count [13] was 0 of 6 and the survivor count [11] was 6 of 6.
For `CCCCN1C=C(C)N(CCCC)CC1`, the survivor count [6] was 5 of 5 and the survivor count [7] was 0 of 5.
For `CC(=O)N1CCN(c2ccc(OCC3COC(Cn4ccnc4)(c4ccc(Cl)cc4Cl)O3)cc2)CC1` (configuration not stated), the survivor count (dose: 200.0 mg/kg/injection, schedule: Q01DX009 (ip), vehicle: saline with Tween-80) was 6 of 6.
For `O=C1c2ccccc2-c2c1c1ccccc1c(=O)n2Cc1ccco1`, the survivor count (dose: 6.25 mg/kg/injection, schedule: Q01DX005 (ip), vehicle: saline with Tween-80) was 5 of 5, the survivor count (dose: 12.5 mg/kg/injection, schedule: Q01DX005 (ip), vehicle: saline with Tween-80) was 5 of 5 and the survivor count (dose: 25.0 mg/kg/injection, schedule: Q01DX005 (ip), vehicle: saline with Tween-80) was 5 of 5. The survivor count [12] was 5 of 5, the survivor count [6] was 5 of 5 and the survivor count [7] was 5 of 5.
With `COc1ccc2nccc(NCCCN3CCN(CCCNc4ccnc5ccc(OC)cc45)CC3)c2c1` the survivor count (dose: 30.0 mg/kg/injection, schedule: Q01DX005 (ip), vehicle: water) was 0 of 6 and 4 of 6, the survivor count (dose: 60.0 mg/kg/injection, schedule: Q01DX005 (ip), vehicle: water) was 0 of 6 and the survivor count (dose: 120.0 mg/kg/injection, schedule: Q01DX005 (ip), vehicle: water) was 1 of 6. For the same molecule, the survivor count (dose: 240.0 mg/kg/injection, schedule: Q01DX005 (ip), vehicle: water) was 0 of 6.
`Cc1cc(=O)oc2cc(OC(=O)Nc3ccc(Cl)cc3C(F)(F)F)ccc12` was tested, and the survivor count [8] was 5 of 6.
In the case of `CC(O)C(O)C=O` (configuration not stated), the T/C (dose: 346.0 mg/kg/injection, schedule: Q01DX010 (ip), vehicle: saline) is reported as 140 % of control and the T/C (dose: 576.0 mg/kg/injection, schedule: Q01DX010 (ip), vehicle: saline) is reported as 140 % of control.
`CCN(C)N=Nc1cccnc1` was tested, and the T/C [15] was 148 % of control.
`CC1(C)C2CC=C(C[P+](c3ccccc3)(c3ccccc3)c3ccccc3)C1C2` (configuration not stated) was tested, and the T/C (dose: 5.0 mg/kg/injection, schedule: Q01DX009 (ip), vehicle: saline with Tween-80) was 133 % of control.
For `CC(C)(C)c1cc2c(c(C(C)(C)OC(=O)c3ccccc3)c1)SOC2(C)C`, the survivor count [5] was 6 of 6.
For `CC1CCCCN1CC(C)(C)C` (configuration not stated), the survivor count [14] was 0 of 6.
For `Clc1cc[c]([Sb]2([c]3ccc(Cl)cc3)([c]3ccc(Cl)cc3)[O]C(C(Cl)(Cl)Cl)[O]2)cc1` (configuration not stated), the survivor count [3] was 6 of 6 and the survivor count [4] was 1 of 6.
With `c1ccc(CN2COc3c(ccc4c3OCN(Cc3ccccc3)C4)C2)cc1` the survivor count [1] was 5 of 6.
In the case of `COC(=O)c1c2ccccc2cn1C`, the survivor count (dose: 400.0 mg/kg/injection, schedule: Q04DX002 (ip), vehicle: saline with Tween-80) is reported as 1 of 6.
With `Cc1noc(NS(=O)(=O)c2ccc(N=c3c4ccccc4n(C)c4ccccc34)cc2)c1C` the T/C [12] was 131 % of control, the T/C [6] was 130 % of control and the T/C [7] was 131 % of control.
`COc1cc[n+](CC(=O)c2c[nH]c3ccccc23)cc1` was tested, and the survivor count [4] was 0 of 6.
With `O=[N+]([O-])c1cccnc1S(=O)(=O)c1ncccn1` the survivor count [2] was 2 of 6, the survivor count [3] was 0 of 6 and the survivor count [4] was 0 of 6.
With `Cc1cc(Cl)nc2nc(Cl)ccc12` the survivor count [7] was 3 of 6.
With `N#[N+]c1c([O-])ccc2ccccc12` the survivor count (dose: 100.0 mg/kg/injection, schedule: Q04DX002 (ip), vehicle: Klucel (hydroxypropylcellulose) (HPC)) was 6 of 6, the survivor count (dose: 200.0 mg/kg/injection, schedule: Q04DX002 (ip), vehicle: Klucel (hydroxypropylcellulose) (HPC)) was 6 of 6 and the survivor count (dose: 400.0 mg/kg/injection, schedule: Q04DX002 (ip), vehicle: Klucel (hydroxypropylcellulose) (HPC)) was 6 of 6.
`CC(=NC(C)C)Nc1ccc(Cl)cc1C` was tested, and the survivor count (dose: 200.0 mg/kg/injection, schedule: Q01DX009 (ip), vehicle: saline + Tween-80 + alcohol) was 3 of 6.
`CCCCCCCOc1ccc(OCCCC[N+]2(CC)CCCCC2)cc1` was tested, and the survivor count (dose: 50.0 mg/kg/injection, schedule: Q01DX009 (ip), vehicle: saline) was 0 of 6, the survivor count [15] was 0 of 6 and the survivor count (dose: 200.0 mg/kg/injection, schedule: Q01DX009 (ip), vehicle: saline) was 0 of 6.
